Square brackets hold non-standard residues; d marks the D form. NMeV = CN[C@H](C(=O)O)C(C)C; Nle = CCCC[C@H](N)C(=O)O
experiment: general procedure: Fmoc solid-phase peptide synthesis; Fmoc-Rink Linker-BHA resin; HBTU and DIC with HOBT (preferred); BOP/NMM for cyclisation; conditions: whole synthesis, scale 0.25 mmol

| Substance | isolated mass | isolated yield |
| --- | --- | --- |
| Ac-HSDA[NMeV]FTENYTKLRKR[Nle]AAKKYLNDLKKGGT-NH2 | 13.8 mg | 1.2% |
| Ac-HADA[NMeV]FTENYTKLRKQ[Nle]AAKKYLNDLKKGGT-NH2 | 49 mg | 4.5% |
| Ac-HADA[NMeV]FTENYTKLRKQ[Nle]AAKKYLNDLLKGGT-NH2 | 30.2 mg | 2.8% |
| Ac-His-Ser-Asp-Ala-MeVal-Phe-Thr-Glu-Asn-Tyr-thr-Lys-Leu-Arg-Lys-Gln-Nle-Ala-Ala-Lys-Lys-Tyr-Leu-Asn-Asp-Leu-Leu-Lys-Gly-Gly-Thr-NH2 | 55 mg | 5.2% |

— patent US20080096807A1 (priority 2006, published 2008)
